Data: patent US11713305B2, “Zinc sensors for in vivo imaging of beta-cell function by MRI” (The Board of Regents of the University of Texas System, priority 2017, dated 2023)
Some entries share one result that the patent states for a list of compounds.

Assay: 17O NMR of Gd complexes (water exchange, SBM fitting)
Format: physicochemical
Conditions: 9.4 T, 310 K
Procedure: Given that the rate of water exchange (kex) in these complexes is likely the limiting factor in determining the magnitude of r1 increase when the GdL-Zn complexes bind to HSA, further temperature dependent ^17O NMR studies were performed to evaluate the water exchange rates. A simultaneous analysis of ^17O reduced T1, T2, and chemical shift (Δωr) data were analyzed (Powell et al., 1996; Gonzalez et al., 1994; Martins et al., 2013; Martins et al., 2015) to estimate the q values, kex, and hyperfine coupling constants for GdL1-5.
^17O NMR experiments were performed at 9.4 T on a Bruker AVANCE III NMR spectrometer. The temperature was regulated by air flow controlled by a Bruker VT unit. The samples ([Gd^3+]=25 mM; [Dy^3+]=1 mM) were prepared in ^17O enriched water (10%) with the pH being maintained at 7.4 with 100 mM Tris buffer. The sample was loaded into a 18 μL spherical bulb (Wilmad-Lab Glass, Vineland, NJ) and placed inside a 5 mm NMR tube containing 400 μL of water to eliminate any susceptibility effects. Longitudinal relaxation rates (1/T1) were obtained by the inversion recovery method and transverse relaxation rates (1/T2) were obtained by the Carr-Purcell—Meiboom—Gill spin echo technique. The acidified water (pH=3.0) containing 10% enriched ^17O water was used as a reference for the measurements. […]
^17O NMR data have been analyzed within the framework of Solomon-Bloembergen-Morgan theory.
From the measured ^17O NMR relaxation rates and angular frequencies of the paramagnetic solutions, 1/T1, 1/T2 and ω, and of the acidified water reference, a1/T1A, 1/T2A and ωA, one can calculate the reduced relaxation rates and chemical shifts, 1/7′2, and Δωr, which may be written in Equations (A1)-(A3), where, 1/T1m, 1/T2m, is the relaxation rate of the bound water and Awn, is the chemical shift difference between bound and bulk water molecules, τm is the mean residence time or the inverse of the water exchange rate kex and Pm is the mole fraction of the bound water (Swift and Connick, 1962; Zimmerman and Brittin, 1957). […]

Question: With `O=C(O)CN1CCN(CCC(=O)NCCN(Cc2ccccn2)Cc2ccccn2)CCN(CC(=O)O)CCN(CC(=O)O)CC1` [GdL2] as the compound, how does the “water exchange rate kex^310” value read?
Answer: 90−100 ×10^6 s^−1

Question: With `O=C(O)CN1CCN(CCC(=O)NCCN(CCc2ccccn2)Cc2ccccn2)CCN(CC(=O)O)CCN(CC(=O)O)CC1` [GdL5] as the compound, how does the “water exchange rate kex^310” value read?
Answer: 90−100 ×10^6 s^−1

Question: With `O=C(O)CCN1CCN(CC(=O)O)CCN(CC(=O)NCCN(Cc2ccccn2)Cc2ccccn2)CCN(CC(=O)O)CC1` [GdL3] as the compound, how does the “water exchange rate kex^310” value read?
Answer: 90−100 ×10^6 s^−1
